Results on two substances are retold here after article PMC2933246.

Amino acid sequences for entries named in this document (tags omitted). A change or cut given only in a name is not applied to a line headed by its entry.
UniProt P17255: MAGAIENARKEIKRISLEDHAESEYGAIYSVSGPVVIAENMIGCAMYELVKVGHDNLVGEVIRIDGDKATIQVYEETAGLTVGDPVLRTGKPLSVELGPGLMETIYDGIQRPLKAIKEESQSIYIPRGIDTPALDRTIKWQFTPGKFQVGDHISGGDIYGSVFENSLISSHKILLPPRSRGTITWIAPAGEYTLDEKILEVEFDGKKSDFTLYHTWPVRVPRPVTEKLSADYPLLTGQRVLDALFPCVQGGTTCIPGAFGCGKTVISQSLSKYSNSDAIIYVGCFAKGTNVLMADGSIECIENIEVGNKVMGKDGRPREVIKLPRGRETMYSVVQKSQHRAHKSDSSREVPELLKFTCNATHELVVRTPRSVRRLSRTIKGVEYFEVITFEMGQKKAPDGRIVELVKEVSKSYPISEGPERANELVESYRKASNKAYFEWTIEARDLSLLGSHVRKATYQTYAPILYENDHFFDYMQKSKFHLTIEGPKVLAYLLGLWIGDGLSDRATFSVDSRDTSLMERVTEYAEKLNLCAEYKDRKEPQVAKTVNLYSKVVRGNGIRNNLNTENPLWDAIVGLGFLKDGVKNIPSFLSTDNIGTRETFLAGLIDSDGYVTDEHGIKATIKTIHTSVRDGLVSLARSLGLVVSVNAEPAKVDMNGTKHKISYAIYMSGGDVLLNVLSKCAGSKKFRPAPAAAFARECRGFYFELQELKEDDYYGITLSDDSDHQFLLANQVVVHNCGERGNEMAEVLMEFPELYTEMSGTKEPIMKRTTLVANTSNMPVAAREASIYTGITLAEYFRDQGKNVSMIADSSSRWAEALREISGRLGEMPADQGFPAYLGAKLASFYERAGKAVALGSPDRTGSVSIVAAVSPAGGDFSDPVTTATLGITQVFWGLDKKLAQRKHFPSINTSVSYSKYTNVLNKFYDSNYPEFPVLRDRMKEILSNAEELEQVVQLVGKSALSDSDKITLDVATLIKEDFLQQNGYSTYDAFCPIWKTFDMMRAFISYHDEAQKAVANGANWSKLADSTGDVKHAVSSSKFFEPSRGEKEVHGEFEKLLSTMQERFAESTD
UniProt P32610: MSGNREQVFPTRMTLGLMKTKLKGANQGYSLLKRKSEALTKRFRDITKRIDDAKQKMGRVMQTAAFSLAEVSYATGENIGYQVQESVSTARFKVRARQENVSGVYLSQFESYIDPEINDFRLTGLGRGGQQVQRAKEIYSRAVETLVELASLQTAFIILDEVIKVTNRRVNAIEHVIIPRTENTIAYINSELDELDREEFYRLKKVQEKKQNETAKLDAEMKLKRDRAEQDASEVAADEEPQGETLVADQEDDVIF
UniProt P39111: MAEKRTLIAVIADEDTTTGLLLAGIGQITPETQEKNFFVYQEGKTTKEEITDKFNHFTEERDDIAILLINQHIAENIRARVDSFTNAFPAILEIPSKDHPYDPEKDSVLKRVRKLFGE

No constants are given. Whether binding was seen depends on the method and setting. A result given as binding can be weak or reduced; the word gives no strength.

The experiment deals with V-ATPase subunit A with carboxy-terminal 3xFLAG (Saccharomyces cerevisiae) (UniProt P17255). In words: cryo-EM structure; A3B3DF reconstruction, 14 Å, 21,682 particles, sorted by MU… (EMAN) from the purified V1-ATPase sample; T. thermophilus X-ray coordinates fitted; both purified.

Regarding “V-ATPase subunit D (from UniProt P32610 1-256)”, the binding entry was “binds”. As for “V-ATPase subunit F (from UniProt P39111 1-118)”, the binding result is on record as “binds”.
